Test results published in PubChem BioAssay AID504834 (National Center for Advancing Translational Sciences (NCATS), 2011).
Screen size: about 320,000 compounds; about 22,000 (6.9%) were called active. The inconclusive results got no clear call from the source; some entries with a clear call stand among them for comparison. The call rests on the fitted dose curve; in most records, active means well fitted inhibition curve with a large enough effect; inconclusive means small, poorly fitted or top-dose-only effect, or another doubt; inactive means no such curve, though single readings can be large or run the other way. A potency beside an inconclusive call is a rough fit, not a confirmed value.

Test: Primary qHTS for delayed death inhibitors of the malarial parasite plastid, 96 hour incubation
Conditions: P. falciparum luciferase reporter growth; series mostly up to 28.7 µM; activity change, negative = inhibition: at the top concentration
Procedure, shortened: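 Erythrocytes infected with luciferase-expressing P. falciparum were dispensed at 2% hematocrit and 0.05% parasitemia (final), then incubated with compounds 96 hours at 37 C in 5% CO2. Luminescence after detection reagent addition reported growth.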
On the % scale 0 is the no-effect control and ±100 the full control effect; potency means the concentration at half of the fitted maximal effect.

| SMILES | activity change, negative = inhibition | Potency |
| --- | --- | --- |
| CCn1c(=O)cc(SCC(=O)Nc2cccc(C)n2)c2ccccc21 | inactive: 7.59% | – |
| O=C(OCCOc1cccc(Cl)c1)C1CCN(S(=O)(=O)c2ccccc2)CC1 | inactive: 0% | – |
| S=C(NCCc1ccccc1)Nc1ccc(N2CCCCC2)cc1 | – | inconclusive: 11.7 µM [inhibitor, single point] |
| Clc1ccc(OCCSCc2nc3ccccc3[nH]2)cc1 | – | inconclusive: 0.294 µM [inhibitor, full curve, poor fit] |
| O=C(CSc1nnc(SCc2ccc(Cl)cc2)s1)N1CCN(C(=O)c2ccco2)CC1 | – | inconclusive: 18.5 µM [inhibitor, single point] |
| Cc1ccccc1C(=O)N1CCCC(CCC(=O)N2CCN(c3ccccn3)CC2)C1 (configuration not stated) | – | inconclusive: 16.5 µM [inhibitor, single point] |
| CC(C)c1ccc(NC(=S)NC2CC3C=CC2C3)cc1 (configuration not stated) | – | inconclusive: 18.5 µM [inhibitor, single point] |
| COc1ccc(C2CC2C(C)=O)cc1 (configuration not stated) | inactive: 27.3% | – |
| CCOc1ccc2ncc(S(=O)(=O)c3ccccc3)c(N3CCN(c4ccc(OC)cc4)CC3)c2c1 | – | active: 2.94 µM |
| CN(C)S(=O)(=O)c1cccc(-c2nnc(SCCNCCO)n2-c2ccc(F)cc2)c1 | inactive: -23.5% | – |
| Cc1cc(S(=O)(=O)ON2C(=O)c3ccccc3C2=O)ccc1F | inactive: 19.4% | – |
| O=C(C1CCCN1S(=O)(=O)c1cccc2nsnc12)N1CCCCC1 (configuration not stated) | inactive: 21.7% | – |
| CCc1ccc(/C=N/N2CCN(c3ccccn3)CC2)cc1 | inactive: 42% | – |
| O=C(CSc1ncn[nH]1)N/N=C/c1ccc(Br)cc1 | – | inconclusive: 1.31 µM [inhibitor, partial curve, poor fit] |
| CCN(CC(=O)NC1CC1)S(=O)(=O)c1ccc(OC)cc1 | – | inconclusive: 18.5 µM [inhibitor, single point] |
| CC(C)Oc1ccc(C(=O)NCc2cccs2)cc1 | inactive: 23.3% | – |
| Cc1ccc(N(Cc2ccccc2O)C(=O)c2ccccc2F)cc1 | – | inconclusive: 4.15 µM [inhibitor, partial curve, poor fit] |
| Nc1nc(N)c2[nH]c(-c3ccccc3)nc2n1 | – | inconclusive: 18.5 µM [inhibitor, single point] |
| Cc1ccc(C2CC2C(=O)NNC(=S)Nc2cccc(Cl)c2)cc1 (configuration not stated) | – | inconclusive: 14.7 µM [inhibitor, partial curve] |
| O=C(Nc1ccc(Cl)cc1)c1ccco1 | – | active: 5.22 µM |
| CN(C)S(=O)(=O)c1cccc(C(=O)Nc2cc(S(=O)(=O)N3CCOCC3)ccc2O)c1 | – | inconclusive: 3.29 µM [inhibitor, full curve] |
| CCCc1cc(C(=O)Nc2cccc(C(C)=O)c2)no1 | – | inconclusive: 14.7 µM [inhibitor, single point] |
| O=C(Cc1ccc(F)cc1)Nc1nnc(-c2ccc(F)cc2)o1 | – | inconclusive: 11.7 µM [inhibitor, partial curve, poor fit] |
| O=C1C(=O)N(CCCn2ccnc2)C(c2ccc(Br)cc2)/C1=C(\O)c1ccc2c(c1)OCCO2 (configuration not stated) | – | active: 9.28 µM |

An excerpt of these results, as tab-separated lines:
SMILES	activity change, negative = inhibition	Potency
O=C(OCCOc1cccc(Cl)c1)C1CCN(S(=O)(=O)c2ccccc2)CC1	inactive: 0%	–
S=C(NCCc1ccccc1)Nc1ccc(N2CCCCC2)cc1	–	inconclusive: 11.7 µM [inhibitor, single point]
Clc1ccc(OCCSCc2nc3ccccc3[nH]2)cc1	–	inconclusive: 0.294 µM [inhibitor, full curve, poor fit]
COc1ccc(C2CC2C(C)=O)cc1 (configuration not stated)	inactive: 27.3%	–
CCOc1ccc2ncc(S(=O)(=O)c3ccccc3)c(N3CCN(c4ccc(OC)cc4)CC3)c2c1	–	active: 2.94 µM
CC(C)Oc1ccc(C(=O)NCc2cccs2)cc1	inactive: 23.3%	–
Nc1nc(N)c2[nH]c(-c3ccccc3)nc2n1	–	inconclusive: 18.5 µM [inhibitor, single point]
O=C(Nc1ccc(Cl)cc1)c1ccco1	–	active: 5.22 µM
CN(C)S(=O)(=O)c1cccc(C(=O)Nc2cc(S(=O)(=O)N3CCOCC3)ccc2O)c1	–	inconclusive: 3.29 µM [inhibitor, full curve]
O=C(Cc1ccc(F)cc1)Nc1nnc(-c2ccc(F)cc2)o1	–	inconclusive: 11.7 µM [inhibitor, partial curve, poor fit]

Additional entries follow:

| SMILES | activity change, negative = inhibition | Potency |
| --- | --- | --- |
| CCOC(=O)c1sc(NCc2ccco2)c(-c2nc3ccccc3s2)c1N | – | inconclusive: 11.7 µM [inhibitor, single point] |
| O=C(COc1cc2oc(=O)c3c(c2cc1Cl)CCC3)NCCCN1CCOCC1 | – | inconclusive: 11.7 µM [inhibitor, single point] |
| CC1CC1C(=O)N1CCN(S(=O)(=O)c2cc(C(F)(F)F)cc(C(F)(F)F)c2)CC1 (configuration not stated) | – | inconclusive: 2.94 µM [inhibitor, single point] |
| Nc1cc(-c2ccccc2)nn1S(=O)(=O)c1ccc(F)cc1 | – | active: 10.4 µM |
| CC(=O)c1ccc(N2CCN(C(=O)C3CCCN(c4ncnc5c4nc4n5CCCCC4)C3)CC2)cc1 (configuration not stated) | – | inconclusive: 2.33 µM [inhibitor, full curve, poor fit] |
| COc1ccc(NC(=O)c2ccccc2Cl)c(NC(=O)c2ccco2)c1 | – | inconclusive: 16.5 µM [inhibitor, partial curve, poor fit] |
| O=C(c1ccc(N2CCCC2=O)cc1)N1CCN(c2ccccc2Cl)CC1 | – | inconclusive: 9.28 µM [inhibitor, single point] |
| CCc1nc(Nc2ccccc2)c2nnn(Cc3ccccc3)c2n1 | – | active: 10.4 µM |
| Cc1cccc(NC(=S)NNC(=O)c2cc3c(s2)CCC(C)C3)c1C (configuration not stated) | – | inconclusive: 4.15 µM [inhibitor, single point] |
| COC(=O)c1c(NC(=O)C(=O)N2CCOCC2)sc2c1CCCC2 | – | inconclusive: 18.5 µM [inhibitor, single point] |
| COc1ccc2nc(N3C(=O)/C(=C/c4ccccc4)NC3=S)sc2c1 | – | active: 0.828 µM |
| COc1cc2c(cc1C1NC(=S)NC(C)=C1C(=O)N(C)C)CCCC2 (configuration not stated) | inactive: -4.33% | – |
| O=C(NC1CCCCC1)N1CCc2[nH]c3ccccc3c2C1 | – | active: 8.28 µM |
| Cc1cccc(N(C(=O)Cn2nnc(-c3ccc(C)o3)n2)C(C(=O)NC2CCCC2)c2ccncc2)c1 (configuration not stated) | inactive: -5.05% | – |
| COC(=O)c1c(NC(=O)COc2ccc(Cl)cc2)sc2c1CC(C)(C)NC2(C)C | – | inconclusive: 18.5 µM [inhibitor, single point] |
| O=C(Nc1cc(S(=O)(=O)N2CCCCC2)ccc1Oc1ccccc1)C1=COCCO1 | – | active: 10.4 µM |
| CC(=O)COc1ccc2oc(=O)cc(-c3cc4ccccc4o3)c2c1 | – | inconclusive: 18.5 µM [inhibitor, single point] |
| O=C(NCCc1ccco1)C(=O)NCC1CCCN1S(=O)(=O)c1ccccc1 (configuration not stated) | – | inconclusive: 18.5 µM [inhibitor, single point] |
| COc1ccc(CNC(=O)C2CCN(S(=O)(=O)c3ccc4c(c3)CC(C)N4C(C)=O)CC2)cc1 (configuration not stated) | – | active: 11.7 µM |
| CCC(=O)c1ccc(O)c(CC=C(C)C)c1 | – | inconclusive: 10.4 µM [inhibitor, partial curve] |
| CCn1c(SCC(N)=O)nnc1C(C)C | – | active: 8.28 µM |
| OCCN1CCN(CCCN2c3ccccc3Sc3ccc(C(F)(F)F)cc32)CC1 | – | active: 1.85 µM |
| CCN1CCN(c2ncc(C(=O)Nc3ccccc3C(=O)OC)c3ccccc23)CC1 | – | inconclusive: 8.28 µM [inhibitor, partial curve, poor fit] |
